The values below come from paper PMC10163288.

Some of the results follow.

First the molecules themselves.
B1: il2ra_site1_2b5i_sap_11_mot_HHH_b1_02217_af2_000000060_0001_42_56_H_._HHH_b1_08219_0001_0000700019_0000001_0_0001_af2pred_0001_af2pred (protein)
chain: SSSSDEAEEVFELLEEANKLFKNGNPEEAEKILERAEELAKEINSPNLLKLIEAALKLIRSSSSS
B2: il2ra_site1_2b5i_normal_mot_HHH_b2_04910_000000118_0001_1_19_H_._HHH_b1_03408_0001_0000500036_0000001_0_af2pred_dldesign_0_af2pred (protein)
chain: SSSSSPEVKEALELFKKADELFKAGKEEEAKELLEKALKLLEEAKSSKKKFVEAALKQLESSSSS
B3: il2ra_site1_3nfp_normal_mot_HHH_b1_01335_af2_000000105_0001_39_53_H_._HHH_b2_00121_0001_0000200007_0000001_0_af2pred_0001_af2pred (protein)
chain: SSSSSEEEVREVLEEAERAAEEGDIQRVDELLREALKLANENKDEEARELVRKFAEELAEESSSS
B4: il2ra_site2_2erj_normal_mot_HHH_b2_00494_000000216_0001_41_54_H_._HHH_b2_06608_0001_0000400032_0000001_0 (protein)
chain: SSSSDEELKRLYELADRALELLYRGNPEEAREVLEEARELAEKLGSDNAREAIEFLEEQINSSSS
B5: il2ra_site1_2b5i_sap_10_mot_HHH_b2_03947_af2_000000011_0001_39_52_H_._HHH_b1_03827_0002_0000300009_0000001_0_0001 (protein)
chain: SSSSDIEEQIDELFREASELWRKGNPEEARKLLEEALELAEEANDPEAARDIEQMLRMAGSSSSS
B6: il2ra_site1_2b5i_sap_8_mot_a1647c6a1bc1795bd61f8ac90a0f45d0_0001_1_000000140_0001_54_65_H_._490c46be001311c379c03e06fdb6e4f5_0001_1_0001_0000100006_0000001_0_00 … (protein)
chain: SSSSSSDEEEEIAELFSEASRIRDPEEAREVLEEAKRLAEELNDEKIKKQIEALQRWRRSSSSSS
B7: il2ra_site1_2b5i_normal_mot_f5ff40796168375b462bec8614a1db4a_0001_1_000000138_0001_53_65_H_._HHH_b2_03376_0001_0000200014_0000001_0_af2pred_dldesign_0_af2pred (protein)
chain: SSSSSSPEELCEELKAEVEALLAAGDTERARKLALLLRRIAKKLKNEEILKECDALLAALSSSSS
B8: il2ra_site1_1z92_normal_mot_07d2d8a42fb0c6931fb03626c2a0eeb8_0001_000000112_0001_36_50_H_._f0ee23d083d0677da3dfcc8a6cd225b6_0001_af2_0001_0000200007_0000001_0 (protein)
chain: SEEEEEIEEEIKKVPDPVIREVLEILLKLARQGDPTARFALEQLLKKLELGNPRSARNIAQKLLR
B9: il2ra_site1_2b5i_sap_2_mot_05650c620ad560ee7d778618fc3b96ad_0001_000000157_0001_16_30_H_._HHH_b1_04080_0001_0000100001_0000001_0_0001_af2pred_dldesign_0_af2pred (protein)
chain: SSSSDAEELRALFLKANELHQAGKDEEAIEVLEKALELARARGATGWVRFIELALKQVLESSSSS
B10: il2ra_site1_2b5i_normal_mot_HHH_b1_02271_000000068_0001_1_16_H_._HHH_b2_02493_af2_0001_0000400015_0000001_0_af2pred_dldesign_0_af2pred (protein)
chain: SSSSSSEKREEARRLIEEAKKEKNLREALKLLEEAVKLAEELNDEELAEEAERLARELLSSSSSS
B11: il2ra_site1_2b5i_normal_mot_HHH_b2_04910_000000118_0001_1_19_H_._HHH_b1_05981_0001_0000700008_0000001_0_af2pred_dldesign_0_af2pred (protein)
chain: SSSSMEEVRKLFLEADKLFQAGKNDEALKVLEEALKLAKEAGSKLAVRLCENAIKQIKSLSSSSS
B12: il2ra_site2_3nfp_normal_mot_HHH_b2_00429_000000100_0001_21_37_H_._HHH_b2_04487_0001_0000100009_0000001_0 (protein)
chain: SSSSSDEEIEELLEQLERLLEEGDEEKFQRAVAKAAHVIYRLNDHEAFARLADLVFELLGSSSSS
B13: il2ra_site1_3nfp_sap_16_mot_HHH_b1_01159_af2_000000075_0001_1_20_H_._HHH_b2_04724_af2_0001_0000100001_0000001_0_0001_af2pred_0001_af2pred_1 (protein)
chain: SSSSDSVREFVRRFIEELLKRGNKERAEKTLERFEKDAERARDEEEKELLEELEELLERLSSSSS
B14: il2ra_site1_1z92_sap_22_mot_00a0fa73c9dbd8f1f8571bd9de0225d9_0001_af2_000000011_0001_1_12_H_._HHH_b1_04875_0001_0000100004_0000001_1_0001_af2pred_0001_af2pred_1 (protein)
chain: SSSSTKTEEALELAERQLELLVRLGDRERLKNNLKMAKIAARLLNDPEVEREIEELEEEGSSSSS
B15: il2ra_site1_2b5i_sap_16_mot_HHH_b1_05017_af2_000000115_0001_1_18_H_._HHH_b2_00737_af2_0001_0000300018_0000001_0_0001_af2pred_0001_af2pred (protein)
chain: SSSSTEETEELYELFEEANELDRNGNPEEARKVLEEALELAEEAGSPFARSIRIALEQFKSSSSS
B16: il2ra_site1_2b5i_sap_9_mot_HHH_b1_06258_af2_000000112_0001_42_56_H_._HHH_b1_04022_af2_0001_0000200017_0000001_0_0001_af2pred_dldesign_0_af2pred (protein)
chain: SSSSDPVAEALRLFLKADELFKAGKEEEALEALKEALKLAEKLGSKLLIRTIKSAIKNVESSSSS
B17: il2ra_site2_3nfp_sap_20_mot_HHH_b1_03818_000000217_0001_1_20_H_._HHH_b1_03372_af2_0001_0000600033_0000001_0_0001 (protein)
chain: SSSSDDREAAVRSALRLAEQLYEEGDPELAENALEWARAVALLWDNPELEKEVQKVEEELKSSSS
B18: il2ra_site2_3nfp_normal_mot_HHH_b2_00429_000000100_0001_21_37_H_._fc954f5bc8b30fbfb24795ed7ddcaf20_0001_af2_0001_0000100001_0000001_0 (protein)
chain: PEELVEEIIELIERGDPRARELASRLALLAYENNDHELFAVAADLLAALLEGDPHYLEEAERSLN
B19: il2ra_site1_3nfp_normal_mot_46d73865503fbedcaf0f3a45445d594c_0001_af2_000000151_0001_1_12_H_._HEEHE_1653_0001_0000300017_0000001_0 (protein)
chain: DEEVDSRAIRKLLERAAKVPSVEVEVENNKVTVTVEGNDEAARLAEEAARQAAKSLKVSVEVHEE
B20: il2ra_site1_1z92_normal_mot_ae822554cddc87a57d04fcdb10ee4bf1_0001_1_000000099_0001_1_12_H_._HHH_b2_00624_af2_0001_0000100002_0000001_0_af2pred_0001_af2pred (protein)
chain: SSSSSDDSRRFSELLRRALKALSEGNPEEAKELLEEAEKIAEKNGDEKAREFIERLLERAGSSSS
B21: il2ra_site2_2erj_sap_11_mot_HHH_b2_00525_af2_000000030_0001_1_19_H_._HHH_b1_08252_0001_0000100001_0000001_0_0001 (protein)
chain: SSSSDERLHELFELASRLMHLASNGDEEEFEKLARELERLAEELKSRNVEEIVKNLRRQLSSSSS
B22: il2ra_site2_3nfp_sap_17_mot_HHH_b1_05628_af2_000000064_0001_19_35_H_._HHH_b1_04256_0001_0000500019_0000001_0_0001_af2pred_0001_af2pred (protein)
chain: DVEKRLWQLARERNNPDVFIALLIIRLLKEEGVPPEEIEQRVEEVIKKAGLPPEIEELLREAVRE
B23: il2ra_site2_2erj_sap_20_mot_HHH_b2_07792_af2_000000252_0001_18_34_H_._HHH_b2_00442_af2_0001_0000600024_0000001_0_0001 (protein)
chain: SSSSNEELRRLYELLEELLKLLHEGDEEEFEKVLEEAKELAKRLQSDTAKEVLELLERSLSSSSS
B24: il2ra_site1_3nfp_normal_mot_HHH_b1_01231_af2_000000170_0001_1_16_H_._HHH_b1_08672_af2_0001_0001700032_0000001_0_af2pred_0001_af2pred_swapped (protein)
chain: SSSSSEKEEEAKRIARLLLELALKGDREELEELLEKLRELAEELNNPYLERLLREVERLLSSSSS

The target in the assay is il2ra, P01589. The assay is described as follows: yeast display titration.
As for B1, the “apparent Kd” value is “inactive: no binding seen”.

As to B2, the “apparent Kd” value was “inactive: no binding seen”.

On to B3, for which the “apparent Kd” value is “inactive: no binding seen”.

For the molecule B4, the “apparent Kd” value is “inactive: no binding seen”.

As to B5, the “apparent Kd” value was “inactive: no binding seen”.

Consider B6, for which the “apparent Kd” value was “inactive: no binding seen”.

Consider B7, for which the “apparent Kd” value is “inactive: no binding seen”.

In the case of B8, the “apparent Kd” value is “inactive: no binding seen”.

Regarding B9, the “apparent Kd” value is “inactive: no binding seen”.

Take B10: the “apparent Kd” value was “inactive: no binding seen”.

For the molecule B11, the “apparent Kd” value is “inactive: no binding seen”.

B12: the “apparent Kd” value was “inactive: no binding seen”.

B13: the “apparent Kd” value is “inactive: no binding seen”.

B14: the “apparent Kd” value is “inactive: no binding seen”.

With B15, the “apparent Kd” value was “inactive: no binding seen”.

For B16, the “apparent Kd” value was “inactive: no binding seen”.

Consider B17, for which the “apparent Kd” value was “inactive: no binding seen”.

For the molecule B18, the “apparent Kd” value was “inactive: no binding seen”.

With B19, the “apparent Kd” value is “inactive: no binding seen”.

As for B20, the “apparent Kd” value is “inactive: no binding seen”.

On to B21, for which the “apparent Kd” value is “inactive: no binding seen”.

On to B22, for which the “apparent Kd” value was “inactive: no binding seen”.

As to B23, the “apparent Kd” value was “inactive: no binding seen”.

For the molecule B24, the “apparent Kd” value is “inactive: no binding seen”.
